# Assay results reported in patent US9272000B2, “Compositions and methods for treating insulin resistance and diabetes mellitus” (Revalesio Corporation, priority 2009, dated 2016).
# At least one structure is not confirmed: it was looked up by name or label, or the drawing left a doubt.
# Tested on: ovalbumin sensitization model
# Test: Brown Norway rat ovalbumin sensitization model with Budesonide
# Assay type: in vivo, Brown Norway rats
structure (smiles),measurement,setting,value
CCCC1O[C@@H]2C[C@H]3[C@@H]4CCC5=CC(=O)C=C[C@]5(C)[C@H]4[C@@H](O)C[C@]3(C)[C@]2(C(=O)CO)O1 (stereo partly shown) [Budesonide],blood level of eotaxin,"both 6 and 24 hours post challenge, Budesonide 750 ug/kg",reduced the blood eotaxin levels
same,total eosinophil count,"challenged animals, relative to NS alone, Budesonide 750 μg/Kg",reduced the total eosinophil count
same,Eosinophil percentage,"challenged animals, Budesonide 750 ug/kg",did not have a significant effect on Eosinophil percentage count
same,Penh values,"immediately after the challenge, Budesonide 500 and 750 ug/kg",failed to significantly affect the Penh values
